These are yes or no findings as the source states them, for the method shown. Some binding calls cover weakened binding; strength is not graded here. Where a sequence is shown, tags or fusion partners need not be part of it.
Key:
[1] = molecular target: T1, human LAIR1 extracellular domain (ECD) protein with 6 HIS tag at the C-terminus (human) (UniProt Q6GTX8); assay: ELISA
T1 sequence: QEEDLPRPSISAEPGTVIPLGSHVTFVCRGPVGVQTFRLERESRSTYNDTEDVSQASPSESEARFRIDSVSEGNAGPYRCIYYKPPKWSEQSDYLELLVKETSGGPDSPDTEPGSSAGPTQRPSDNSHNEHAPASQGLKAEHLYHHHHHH

[2] = molecular target: T1, human LAIR1 extracellular domain (ECD) protein with 6 HIS tag at the C-terminus (human); assay: ELISA, LAIR1 ECD coated

B1: LA-56 (antibody, V domains shown)
VH: SSSVEESGGRLVTPGTPLTLTCTVSGFSLSAYWVGWVRQAPGKGLEYIGFVDVDIYYASWARGRFTISKTSSTTVDLILTSPTMEDTATYFCVRMSYNAMDLWGPGTLVTISS
VL: ELDLTQTASSVSAAVGDTVTINCQSSESVYKDNFLSWYQQKPGQPPKLLIYRASTLASGVPSRFKGSGSGSQFTLTISDVVCDDAATYYCSGYRNSHDGLPFGGGTEVEIK
notes: Rabbit monoclonal IgG; also called mAb LA-56
[1]
  binding: binds
[2]
  binding: binds

B2: LA-192 (antibody, V domains shown)
VH: EQSLEESGGRLVTPGTPLTLTCTASGFSLSSYYMTWVRQAPGKGLEWIGYMHTGGGVVYASWATGRFTISRTSTTVDLKITSPTTEDTATYFCARSHAGYSTINRLDLWGVGTLVTISS
VL: ELDLTQTPSSVSAAVGGTVTISCQSSPSVYTNNLSWFQQKPGQPPKLLIYDASKLESGVPSRFRGSGSGTQFTLTISDVQCDDAATYYCAGAYLSDSDTTFGGGTELEIK
notes: Rabbit monoclonal IgG; Called an agonist antibody
[1]
  binding: binds
[2]
  binding: binds

B3: LA-61 (antibody, V domains shown)
VH: EQLMEESGGRLVTPGTPLTLTCTASGFDVNAYHMGWVRQAPGKGLEWIGYIYSGGTIFYANWAKGRFTLSRTSTTVDLKITSPTTEDTATYFCARGGYDNYNILYDLWGPGTLVTISS
VL: ELDMTQTPASVSEPVGGTVTIKCQASQSISVYLAWYQQKPGQPPKLLIYDASTLTSGVPSRFKGSGSGTEFTLTISDLECADAAAYYCQSYDGTPTAAFGGGTEVVVK
notes: Rabbit monoclonal IgG; also called mAb LA-61
[1]
  binding: binds
[2]
  binding: binds

B4: LA-145 (antibody, V domains shown)
VH: SSSVEESGGRLVTPGTPLTLTCTVSGFSLSSYVMGWVRQAPGKGLEWIGTISIRSNTYYASWAKGRFTISKTSTTVDLKITSPITEDTATYFCARGAGNVYYSDYYFSLWGPGTLVTISS
VL: ELVMTQPPASVSAAVGGTVTINCQASQNIYSNLAWYQQRPGQPPKLLIYKASTLASGVPSRFKGSGSGTDYTLTITDLECADAATYYCQTYYNMMDDGAAFGGGTEVEIK
notes: Rabbit monoclonal IgG
[1]
  binding: binds
[2]
  binding: binds

B5: LA-111 (antibody, V domains shown)
VH: EQSVEESGGGLVAPGGSLTLTCTVSGFSLSNYHMGWVRQAPGKGLEWIGYIYTHGTTFYASWAKGRFTISKTSTTVDLKMTRLTTGDTATYFCARGGYADYNILYNLWGPGTLVTISS
VL: ELVLTQTPASVEAAVGGTVTINCQASQSISSYLAWYQQKPGQPPKLLIYDASDLASGVPSRFKGSRSGTEFTFTISDLECADAATYYCQTYDSSTTAAFGGGTEVEIK
notes: Rabbit monoclonal IgG
[1]
  binding: binds
[2]
  binding: binds

B6: LA-245 (antibody, V domains shown)
VH: QSLQESRGRLVTPGTPLTLTCTASGFSLSSYHMGWVRQAPGKGLEWIGYIHTNRNTWYANWAKGRFTISKTSSTTVNLRMTSPTTEDTATYFCARGSYGDYNFLFDVWGPGTLVTVSS
VL: ELVMTQTPASVSEPVGGTVTINCQASEDISIYLAWYQQKPGQPPKLLIYDASTLESGVPSRFSGSGSRTQFTLTISDLECADAATYYCQQYSTTDTNNLFGGGTEVEIK
notes: Rabbit monoclonal IgG
[1]
  binding: binds
[2]
  binding: binds

B7: LA-171 (antibody, V domains shown)
VH: EQSVEESGGRLVTPGGSLTLTCTVSGFSLSSYNMGWVRQAPGKGLEYIGWISLGGNTYYASWVNGRFTISKTSTTVELKISSPTTEDTATYFCARGAGSLYYGDYYFTLWGPGTLVTISS
VL: ELVLTQTPSSVSAAVGGTVTIKCQASQSIYSNLAWYQQKPGQPPKLLIYKASNLASGVPSRFKGSGSGTEYTLTISDLECADAATYYCQNYYGINDYGAAFGGGTEVVVK
notes: Rabbit monoclonal IgG
[1]
  binding: binds
[2]
  binding: binds

B8: LA-199 (antibody, V domains shown)
VH: EQSVEESGGRLVTPGTPLTLTCTASGFSLSSYAMIWVRQAPGEGLEWIGDIYAGGGATYYASWAKGRFTISKTSTTVDLKITSPTTEDTATYFCARAYGSGYDLWGPGTLVTVSS
VL: ELDLTQTPASVEVAVGGTVTIKCQASQSISSYLSWYQQKPGQPPKLLIYYASTMASGVPSRFSGSGSGTQFTLTISDLECADAATYYCQQGDSRSNVDNIFGGGTEVVVK
notes: Rabbit monoclonal IgG
[1]
  binding: binds
[2]
  binding: binds

B9: LA-94 (antibody, V domains shown)
VH: EQSLEESEGRLVTPGTPLTLTCTASGFSLSGYHMSWVRQAPGKGLEYIGYISERGTSYYANWAKGRFTVSKSSSSTVVLSIISPTAEDTATYFCARYGGGDSAFILWGPGTLVTISS
VL: ELVMTQTPASVSGPVGGTVTIKCQASHNIDNSLAWYQQKPGQPPKLLIYKASTLASGVSSRFKGSGSGTEYTLTISDLECADAATYFCQGTIGLNSGCAFGGGTEVEIK
notes: Rabbit monoclonal IgG; Called an agonist antibody; also called mAb LA-94; agonist Ab LA-94
[1]
  binding: binds
[2]
  binding: binds

B10: LA-6 (antibody, V domains shown)
VH: EQSVEESGGDLVKPEGSLTLTCTASGFSFSSGYYMCWVRQAPGKGLEWIGCIHSSSGNIYYASWAKGRFTISKTSSTTVDLQLTSLTAADTATYFCARDSEVYGWNPNDLWGPGTLVTVSS
VL: ELDMTQTPASVSEPVGGTVTIKCQASQSISSYLAWYQQKPGQRPKLLIYGASNLASGVSSRFKGSRSGTQFTLTITDLECDDAATYYCQCSYYGNSYVGGAFGGGTEVVVK
notes: Rabbit monoclonal IgG; also called mAb LA-6
[1]
  binding: binds
[2]
  binding: binds

B11: LA-89 (antibody, V domains shown)
VH: QSVKESGGRLVTPGTPLTLTCTVSGFSLSSNAISWVRQAPGKGLEWIGYIYGDGRTFYASWAKGRFTISKTSTTVDLKMTSLTSEDTATYFCIKSLHLWGPGTLVTISS
VL: ELDMTQTASPVSAAVGGTVTINCQSSQSVYNKNQLFWYQQKPGQPPKLLIYDASTLASGVPSRYKGSGSGTQFTLTISGVQCDDAATYYCLGEYTGNIYTFGEGTEVVVK
notes: Rabbit monoclonal IgG; also called mAb LA-89
[1]
  binding: binds
[2]
  binding: binds

B12: LA-259-1 (antibody, V domains shown)
VH: QSVKESGGRLVTPGTPLTLTCTASGFSLYKYNIQWVRQAPGKGLEYIGASTYAGYTYYASWAKGRVTISRTSTTVDLKMTSPTTEDTATYFCARHIDGDYSGYALWGPGTLVTISS
VL: ELVLTQTPASVSAAVGGTVTIKCQASQSIGTWFAWYQQKPGQSPKLLIYGPSKLASGVPPRFKGSGSGTEFTLTISDLECADAATYYCQSTYFGVDYLGGTFGGGTEVVVK
notes: Rabbit monoclonal IgG
[1]
  binding: binds
[2]
  binding: binds

B13: LA-142-1 (antibody, V domains shown)
VH: AAVKESGGRLVTPGTPLTLTCTASGFSLYKYNIQWVRQAPGKGLEYIGASTYAGYTYYASWAKGRVTISRTSTTVDLKMTSPTTEDTATYFCARHIDGDYSGYALWGPGTLVTVSS
VL: ELVLTQTPASVSAAVGGTVTIKCQASQSIGTWFAWYQQKPGQSPKLLIYGPSKLASGVPPRFKGSGSGTEFTLTISDLECADAATYYCQSTYFGVDYLGGTFGGGTEVEIK
notes: Rabbit monoclonal IgG
[1]
  binding: binds
[2]
  binding: binds

B14: LA-142-2 (antibody, V domains shown)
VH: AAVKESGGRLVTPGTPLTLTCTASGFSLYKYNIQWVRQAPGKGLEYIGASTYAGYTYYASWAKGRVTISRTSTTVDLKMTSPTTEDTATYFCARHIDGDYSGYALWGPGTLVTVSS
VL: ELVLTQTPASVSAAVGGTVTIKCQASQSIGTWFAWYQQKPGQSPKLLIYGASNLASGVSSRFKGIRSGTEYTLTISDLECADAATYYCQCSDVGNTYGAAFGGGTEVEIN
notes: Rabbit monoclonal IgG
[1]
  binding: binds
[2]
  binding: binds

B15: LA-258-1 (antibody, V domains shown)
VH: QSVKESGGDLVKPEGSLTLTCKASGFSFSNSYYMCWVRQAPGKGLEWIACIYTGSTSGTYYASWVNGRFTISKTPSTTVTLQMTSLTVADTATYFCSRKLTNFNGAYLDLWGPGTLVTISS
VL: ELVLTQTPASVEAAVGGTVTINCQASQSISNLLAWYQQKPGQRPKLLIYRASTLASGVSSRFKGSGSGTEYTLTISGVQCDDAATYYCQQGYTSNNVDNAFGGGTEVEIK
notes: Rabbit monoclonal IgG
[1]
  binding: binds
[2]
  binding: binds

B16: LA-30 (antibody, V domains shown)
VH: EQSVESGGGLVQPEGSLTLTCKASGFDFSRNAICWVRQAPGKGPEWIACYSFSSSATYYASWAKSRFTISKTSSTTVTLQMTSLTAADTATYFCARVDIYGGSRYWGMWGPGTLVTISS
VL: ELVMTQTPASVEAAVGGTVTIKCQASQNIGGDLAWYQQKPGQPPKLLIYRASTLESGVPSRFSGSGSGTEFTLTISDLECADAATYYCQDTDIGSGAFGGGTELEIK
notes: Rabbit monoclonal IgG; also called mAb LA-30
[1]
  binding: binds
[2]
  binding: binds

B17: LA-35 (antibody, V domains shown)
VH: EQSVKESGGRLVTPGTPLTLTCTVSGIDLSYYSMGWFRQAPGKGLEWIGVISSSDSTYYANWAKGRFTISKTSTTVDLKIAGPTTEDTATYFCARVLANSYNAFNLWGPGSLVTISS
VL: ELDLTQTPASVSEPVGGTVTIKCQASQSVGSRLAWYQQKPGQPPKLLIYKASTLASGVPSRFKGSGSGTQFTLTMSDLECADAATYYCQCTNISSAYLGAFGGGTEVEIK
notes: Rabbit monoclonal IgG; also called mAb LA-35
[1]
  binding: binds
[2]
  binding: binds

B18: LA-37 (antibody, V domains shown)
VH: EQSLEESGGDLVKPGASLTLTCKASGFSFSSSEFMCWVRQAPGKGLEWIACIYGGLSDDTYFASWAKGRFTISKTSSITVTLQMTSLTAADTATYFCARSCDVNYYGFDPWGPGTLVTISS
VL: ELVLTQTPAPVSAAVGDTVTIKCQASQNKGTNLAWYQQKPGQPPKLLIYLSSTLASGVPPRFKGSRSGTEYTLTISDLECADAATYFCQSTYYGSNGLTFGGGTEVEIK
notes: Rabbit monoclonal IgG; also called mAb LA-37
[1]
  binding: binds
[2]
  binding: binds

B19: LA-29 (antibody, V domains shown)
VH: SSSVEESGGGLVQPEGSLTLTCTASGFSFSSRYYMCWVRQAPGKGLEWIACIYNGDGSRYYASWAKGRFTISKTSSTTVTLQMTSLTAADTATYFCVRDRHTAFVDYGDDNLWGPGTLVTVSS
VL: ELDLTQTPASVSEPVGGTVTIKCQASQSIYSNLAWYQQKPGQPPKLLIYRASTLASGVPSRFKGSGAGTEFTLTISDLECADAATYYCQCTYDGISYVPSSFGGGTEVVVK
notes: Rabbit monoclonal IgG; also called mAb LA-29
[1]
  binding: binds
[2]
  binding: binds

B20: LA-60 (antibody, V domains shown)
VH: EQSLESGGGLVQPEGSLTLTCTASGFSFSNSYYMCWVRQAPGKGLEWIGCIYTGSSSGTYYASWAEGRFTISKTPSTTVTLQMTSLTAADTATYFCSRKLTNFNGAYLDLWGPGTLVTVSS
VL: ELVLTQTPASVEAAVGGTVTIKCQASQSIYSYLAWYQQKPGQPPKVLIYKASTLASGVPSRFKGSGSGTEFTLTISDLECADAATYYCQNNNGGSDNTFGGGTEVVVK
notes: Rabbit monoclonal IgG; also called mAb LA-60
[1]
  binding: binds
[2]
  binding: binds

From US20190338026A1 (University of Texas, published 2019)
